This assay has as its target NF-kB p50 (untagged, transfected) (UniProt P25799). The assay can be described thus: co-immunoprecipitation from co-transfected CHO-CD14 cells, anti-gp10 IP, immunoblot.

By UniProt entry, the sequences of proteins in these tests, tags left out. Where a name states a change or a piece, a line headed by the entry shows the natural chain unless it says otherwise. Residues count along the entry.
UniProt P25799, residues 1-433: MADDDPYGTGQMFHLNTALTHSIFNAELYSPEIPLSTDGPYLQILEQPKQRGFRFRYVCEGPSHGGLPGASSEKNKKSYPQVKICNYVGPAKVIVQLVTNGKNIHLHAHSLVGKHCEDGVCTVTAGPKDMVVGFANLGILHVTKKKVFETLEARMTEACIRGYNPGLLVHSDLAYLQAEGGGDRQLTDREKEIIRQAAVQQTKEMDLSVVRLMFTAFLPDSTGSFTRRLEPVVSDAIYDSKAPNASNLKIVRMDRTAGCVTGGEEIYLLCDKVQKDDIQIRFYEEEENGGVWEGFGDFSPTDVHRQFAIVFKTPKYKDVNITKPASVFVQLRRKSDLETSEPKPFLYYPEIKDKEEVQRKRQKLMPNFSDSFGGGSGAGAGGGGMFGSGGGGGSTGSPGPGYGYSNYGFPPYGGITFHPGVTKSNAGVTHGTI

These are yes or no findings as the source states them, for the method shown. Binding seen in cells or lysates may run through a third protein. Some entries that bind do so weakly or less than the wild type.

Consider “p105(sr), p105-based NF-kB super repressor (murine p105 with residues 356-498 and 800-971 deleted, N-terminal gp10 epitope tag) (from UniProt P25799 1-800)”, for which the binding result is listed as “binds”.

These data come from patent US20090099107A1.
